# Primary screen of a compound library

Protein sequences, listed by entry. Tags and fused reporters are not part of them. Residues count along the entry.
UniProt Q8IDJ8, 1-583: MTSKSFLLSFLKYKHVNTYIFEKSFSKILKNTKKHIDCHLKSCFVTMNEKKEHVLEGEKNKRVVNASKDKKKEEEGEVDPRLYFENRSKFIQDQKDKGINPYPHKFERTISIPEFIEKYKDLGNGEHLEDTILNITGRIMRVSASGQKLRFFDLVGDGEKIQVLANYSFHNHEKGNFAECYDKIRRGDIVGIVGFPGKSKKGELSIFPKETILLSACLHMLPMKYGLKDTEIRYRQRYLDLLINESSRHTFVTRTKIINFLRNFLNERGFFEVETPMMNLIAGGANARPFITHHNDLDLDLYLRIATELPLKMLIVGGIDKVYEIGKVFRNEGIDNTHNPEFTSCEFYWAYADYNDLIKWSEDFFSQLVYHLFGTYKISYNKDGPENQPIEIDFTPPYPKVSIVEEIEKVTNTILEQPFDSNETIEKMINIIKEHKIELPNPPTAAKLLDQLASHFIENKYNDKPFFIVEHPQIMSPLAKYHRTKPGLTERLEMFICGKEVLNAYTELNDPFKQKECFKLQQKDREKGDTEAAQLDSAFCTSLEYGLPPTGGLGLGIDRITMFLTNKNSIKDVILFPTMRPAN
UniProt A4I591, 1-473: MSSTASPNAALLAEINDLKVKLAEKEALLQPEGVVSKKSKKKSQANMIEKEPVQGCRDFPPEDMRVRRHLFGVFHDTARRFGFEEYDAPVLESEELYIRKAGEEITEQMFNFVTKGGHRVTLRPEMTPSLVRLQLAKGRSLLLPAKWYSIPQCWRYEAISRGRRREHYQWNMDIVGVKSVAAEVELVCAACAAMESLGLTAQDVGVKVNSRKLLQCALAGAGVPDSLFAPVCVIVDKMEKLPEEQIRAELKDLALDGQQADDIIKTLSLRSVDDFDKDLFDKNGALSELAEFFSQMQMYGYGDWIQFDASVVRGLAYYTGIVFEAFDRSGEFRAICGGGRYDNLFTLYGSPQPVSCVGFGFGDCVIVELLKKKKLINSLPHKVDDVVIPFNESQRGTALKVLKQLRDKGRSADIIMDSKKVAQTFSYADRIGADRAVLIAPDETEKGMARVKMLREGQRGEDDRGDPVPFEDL
UniProt Q4DA54, 1-478: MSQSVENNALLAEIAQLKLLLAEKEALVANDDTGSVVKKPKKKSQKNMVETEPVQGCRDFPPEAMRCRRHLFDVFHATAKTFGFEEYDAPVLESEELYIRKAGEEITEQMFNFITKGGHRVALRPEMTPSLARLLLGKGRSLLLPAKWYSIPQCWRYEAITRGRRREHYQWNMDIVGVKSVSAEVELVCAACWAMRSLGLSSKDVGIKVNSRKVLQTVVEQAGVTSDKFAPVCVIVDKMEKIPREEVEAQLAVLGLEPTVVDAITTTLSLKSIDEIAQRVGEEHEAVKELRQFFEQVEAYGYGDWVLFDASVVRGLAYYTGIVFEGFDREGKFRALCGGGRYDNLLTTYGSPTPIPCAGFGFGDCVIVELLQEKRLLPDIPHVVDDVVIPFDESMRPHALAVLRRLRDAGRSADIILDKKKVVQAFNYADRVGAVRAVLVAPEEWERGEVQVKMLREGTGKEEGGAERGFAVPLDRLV
UniProt P9WPC5, whole entry: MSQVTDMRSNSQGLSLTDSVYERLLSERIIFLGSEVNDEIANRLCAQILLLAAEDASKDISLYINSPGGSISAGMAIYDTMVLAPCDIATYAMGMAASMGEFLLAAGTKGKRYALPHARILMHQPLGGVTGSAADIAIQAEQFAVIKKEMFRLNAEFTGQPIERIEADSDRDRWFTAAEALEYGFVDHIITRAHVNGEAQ
UniProt P9WPC3, whole entry partner: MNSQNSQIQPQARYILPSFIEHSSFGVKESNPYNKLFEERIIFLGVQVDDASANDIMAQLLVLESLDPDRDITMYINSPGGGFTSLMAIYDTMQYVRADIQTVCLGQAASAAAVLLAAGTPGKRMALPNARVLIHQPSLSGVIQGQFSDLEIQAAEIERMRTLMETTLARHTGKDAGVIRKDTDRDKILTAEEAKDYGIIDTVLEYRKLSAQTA

Source: ChEMBL document CHEMBL3988442, “University of Dundee, Small-Polar-MMV Screening Library” (2021).

Each number is a percent effect as filed.
How 0% and 100% were set is not recorded. Most values in the screen are low, and negative values occur.
The compounds are a random part of those screened.
A dash means the value is not listed here; it may have been measured.

PfKRS1: 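Enzyme assay of the cytosolic lysyl-tRNA synthetase in 384-well plates, read by luminescence. Target: Lysine-tRNA ligase, Plasmodium falciparum 3D7 (UniProt Q8IDJ8). Compounds at 30 µM. Higher reads as stronger inhibition, judged from the few compounds that gave an IC50. Of about 69,000 compounds tested this way, about 49 (0.071%) reached 50% or more in at least one test.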
LiHisRS: 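Histidine-tRNA ligase, Leishmania infantum (UniProt A4I591). Enzyme assay of histidyl-tRNA synthetase; the read-out is not stated. Compounds at 30 µM. Direction is inferred from retests: higher values go with stronger inhibition. The assay is labelled LdHisRS but filed under L. infantum. Size under these conditions: about 69,000 compounds, about 410 of them at 50% or above in at least one test.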
TcHisRS: 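Histidine-tRNA ligase, Trypanosoma cruzi CL Brener (UniProt Q4DA54). Enzyme assay of histidyl-tRNA synthetase; the read-out is not stated. Concentration: 30 µM. The record gives no direction; compounds that gave an IC50 in retests scored well above the rest, so higher reads as stronger inhibition. About 69,000 compounds were tested under these conditions; 0.045% (about 31) showed 50% or more at least once.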
Leishmania in macrophages: 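Cell assay of Leishmania donovani living inside macrophages; the read-out is not stated. Compounds at 30 µM. Higher reads as stronger inhibition (inferred: compounds with an IC50 in retests scored well above the rest). Size under these conditions: about 69,000 compounds, about 1,000 of them at 50% or above in at least one test.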
ClpP1P2: 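ClpP1P2, Mycobacterium tuberculosis (UniProt P9WPC5 and UniProt P9WPC3). Protease assay of ClpP1P2, read by the AMC dye that it sets free. Concentration: 50 µM. Higher reads as stronger inhibition, judged from the few compounds that gave an IC50. Most other retested compounds had strongly negative values. Of about 69,000 compounds tested this way, about 10 (0.015%) reached 50% or more in at least one test.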

| compound | PfKRS1 | LiHisRS | TcHisRS | Leishmania in macrophages | ClpP1P2 |
|---|---|---|---|---|---|
| `Cc1ccc(N2CCC3(CCN(C(=O)c4ccccn4)CC3)CC2)nn1` | -2.131% | 11.5% | 12% | - | 8.226% |
| `O=C(O)C(F)(F)F.O=C(O)C(F)(F)F.[H][C@@]12CN(Cc3ccncc3)C[C@]1([H])[C@@H]2CC(=O)N1CCCC1` | - | - | - | -10.49% | - |
| `O=C(O)C(F)(F)F.[H][C@@]12CN(Cc3cccs3)C[C@]1([H])C(=O)N(CC)C2` | - | - | - | 2.646% | - |
| `Cc1ncc(CN(C)C2CCCN(CCc3ccccc3)C2)n1C` (stereo not shown) | 6.14% | 10.4% | -5.528% | 22.06% | -7.532% |
| `c1cnc(NC[C@H]2OC[C@@H]3CCN(Cc4ccsc4)C[C@@H]32)nc1` | 0.3774% | 6.944% | 10.48% | - | -21.85% |
| `Cc1nnc(CN(C)C2CCN(Cc3nc4ccccc4n3C)C2)o1` (stereo not shown) | 0.892% | 10.34% | 5.65% | 31.75% | -45.18% |
| `CC[C@H]1CN(C(=O)c2cccnc2)CC[C@H]1CC(=O)NCCOC` | 8.378% | 11.11% | 13.86% | -43.27% | -1.777% |
| `CC(C)(C)c1cc(CN2C[C@H]3CC[C@@H]2CN(Cc2ccccn2)C3)n[nH]1` | 6.16% | 14.75% | 10.4% | - | -14.78% |
| `CC(C)c1noc(CCNC(=O)N2CCC(O)(C(F)(F)F)C2)n1` (stereo not shown) | 3.344% | 7.317% | 5.288% | 2.206% | -7.852% |
| `CN(C)c1nccc(N(C)Cc2nc3ccccc3n2C)n1` | 3.475% | 14.89% | 12.14% | 2.587% | -4.5% |
| `CSCC(=O)NC1CC(=O)N(CCc2ccccc2)C1` (stereo not shown) | 1.349% | 8.046% | 6.186% | -2.795% | -3.09% |
| `COCC(=O)Nc1ccc([C@@H](O)[C@H]2COCC(=O)N2CC(C)C)cc1` | -0.0743% | 27.03% | -0.4975% | - | 3.042% |
| `Cc1cc(C)nc(N2CCC(OCCN3CCCCC3)C2)n1` (stereo not shown) | -5.575% | 7.692% | -4.598% | -14.11% | -13.19% |
| `COc1ccc(-c2csc(-c3cccc(C(=O)O)c3)n2)cc1OC` | 2.085% | 12% | 12.05% | 19.08% | 1.096% |
| `CCc1nc(C2CCCN2c2ncc(C(N)=O)cc2Cl)no1` (stereo not shown) | 0.8357% | 8.621% | 5.759% | -6.943% | 1.069% |
| `c1cnc(Nc2cc(CCC3CCCNC3)ccn2)cn1` (stereo not shown) | -0.03504% | 10% | 8.812% | - | -17.38% |
| `CC(C)CNC(=O)N1C[C@H]2CCN[C@H]2C1` | 0.4818% | 7.767% | 2.913% | - | -11.18% |
| `COc1cccc(COCC(=O)NC(C(N)=O)c2ccccc2F)c1` (stereo not shown) | -5.178% | 1.587% | 4.04% | -19.98% | -2.781% |
| `O=C(c1ccoc1)N1C[C@H]2CC[C@@]3(N=C(c4ccccc4)NC3=O)[C@H]2C1` | 0.2844% | -2.857% | 6.863% | - | -6.54% |
| `O=C(NCCNc1ncccn1)N1CC=C(c2ccccc2)CC1` | 1.737% | 30.56% | 1.02% | 20.23% | -0.2921% |
| `Cn1cnnc1Sc1ccc(NC(=O)C2CC2)cc1Cl` | 1.034% | 17.14% | 4.124% | -0.1072% | -2.624% |
| `CC(=O)N1C[C@H](NS(=O)(=O)Cc2cccc(Cl)c2)[C@@H](C(C)C)C1` | 1.052% | 12.64% | 4.124% | 0.9125% | 2.461% |
| `O=C(O)C(F)(F)F.O=C(c1ccc[nH]1)N1CCc2c(COCC3CC3)cncc2C1` | - | - | - | 12.79% | - |
| `Cc1nc2c(c(=O)n1C)CN(C(=O)C1CCCN(C(N)=O)C1)C2` (stereo not shown) | 1.869% | 15.62% | 3.191% | -0.8114% | 7.91% |
| `Cc1cccc(CN2CCC3(CC2)CC(Oc2cccnc2)C3)n1.O=C(O)C(F)(F)F.O=C(O)C(F)(F)F` | - | - | - | 13.56% | - |
| `COc1ccc(CN2C[C@@H](F)[C@@H](OCc3nc4cnccc4[nH]3)C2)cn1` | 4.78% | 13.51% | 4.478% | 22.34% | -0.6452% |
| `O=C1[C@H]2CC[C@H](CN(c3ncnc4ccsc34)C2)N1CC1CC1` | 0.7677% | 19.84% | 12.94% | - | -7.423% |
| `c1ccc(CN2Cc3[nH]nc(COc4cccnc4)c3C2)nc1` | 4.786% | 24% | 7.216% | - | -14.03% |
| `CC(C)(C)CN[C@@H]1CO[C@H](CNC(=O)c2cccs2)[C@H]1O` | 5.883% | 16.67% | 11.88% | -22.58% | -4.153% |
| `[H][C@@]12CC(=O)N(c3cnn(C)c3)[C@@]1([H])CCN2C(=O)c1ccco1` | - | - | - | 24.43% | - |
| `O=C(O)C(F)(F)F.[H][C@@]12CCN(Cc3ccc4c(c3)OCO4)C[C@]1([H])O[C@H](C(=O)N(C)C)C2` | - | - | - | -22.64% | - |
| `CCS(=O)(=O)c1ccccc1C(=O)NCC1Cc2ccccc2O1` (stereo not shown) | 1.538% | 17.74% | 7.216% | 12.44% | -2.573% |
| `CNC(=O)C1CN(C(C)C)CCN1c1nc(C)cc(C)n1` (stereo not shown) | 0.5957% | 14.29% | 7.28% | 16.78% | -24.94% |
| `CN(C)c1nccc(N2CCO[C@H]3CN(Cc4nccn4C)C[C@H]32)n1` | -13.85% | 3.191% | 7.035% | - | -13.78% |
| `CC(C)NC(=O)N1CCCC2(CCCCN2)C1` (stereo not shown) | 4.061% | 9.709% | 1.942% | 8.214% | -10.16% |
| `CC(CNC(=O)CCc1ccco1)N1CCc2sccc2C1` (stereo not shown) | -2.029% | 5.357% | 5.263% | 15.63% | -8.762% |
| `c1ccn2cc(CN3CCCC(c4ccn[nH]4)C3)nc2c1` (stereo not shown) | -3.218% | 25.71% | 0% | 8.24% | 10.87% |
| `Cc1ccnn1CCCNC(=O)C1CCN(S(C)(=O)=O)CC1` | 1.071% | -3.571% | 2.632% | 1.388% | -14.71% |
| `Cc1cnn(CCNCc2nc(Cc3ccccc3)no2)c1` | 0.2304% | 8.8% | 3.422% | -13.39% | -0.2747% |